Results: patent US20200155643A1
No constants are given. Whether binding was seen depends on the method and setting. Some results given as binding are weak or reduced against the parent protein; the word gives no strength.

Chains of the proteins cited; added tags and fusions are not shown. Residues count along the entry.
UniProt P05981, residues 45-417: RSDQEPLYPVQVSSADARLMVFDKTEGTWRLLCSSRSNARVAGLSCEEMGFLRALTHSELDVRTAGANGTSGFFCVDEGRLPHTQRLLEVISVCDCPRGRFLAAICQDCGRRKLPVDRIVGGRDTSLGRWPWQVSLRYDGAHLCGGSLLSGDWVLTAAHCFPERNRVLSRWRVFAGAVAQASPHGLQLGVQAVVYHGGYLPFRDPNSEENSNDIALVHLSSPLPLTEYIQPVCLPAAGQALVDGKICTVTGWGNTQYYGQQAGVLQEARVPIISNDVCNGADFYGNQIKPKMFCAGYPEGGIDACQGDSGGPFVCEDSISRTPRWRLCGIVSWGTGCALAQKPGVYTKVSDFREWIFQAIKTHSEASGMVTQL

Legend:
[1] = target: T1, Recombinant human matriptase (human) (UniProt Q9Y5Y6); assay: incubation of 50 nM recombinant matriptase with 50 nM PCI, SDS-PAGE, immunoblot with anti-PCI and anti-matriptase
T1 sequence: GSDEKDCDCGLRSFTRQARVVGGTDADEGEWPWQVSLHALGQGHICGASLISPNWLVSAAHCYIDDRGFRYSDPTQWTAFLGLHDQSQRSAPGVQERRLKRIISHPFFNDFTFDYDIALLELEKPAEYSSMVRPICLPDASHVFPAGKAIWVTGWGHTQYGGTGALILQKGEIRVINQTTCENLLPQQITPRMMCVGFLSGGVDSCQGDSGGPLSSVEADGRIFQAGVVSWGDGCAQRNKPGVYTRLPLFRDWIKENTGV

[2] = target: Recombinant human hepsin (R&D Systems 4776-SE-10) (human) (UniProt P05981); assay: incubation of recombinant hepsin with PCI, immunoblot (FIG. 3A)
[3] = target: T1, Recombinant human matriptase (human); assay: incubation of recombinant matriptase with PCI, immunoblot (FIG. 3B)
[4] = target: Recombinant human hepsin (R&D Systems 4776-SE-10) (human) (UniProt P05981); assay: incubation of 50 nM recombinant hepsin with 50 nM PCI, SDS-PAGE, immunoblot with anti-PCI and anti-hepsin

Measured: binding

B1: Recombinant human protein C inhibitor (PCI, SERPINA5) (protein)
chain: HRHHPREMKKRVEDLHVGATVAPSSRRDFTFDLYRALASAAPSQSIFFSPVSISMSLAMLSLGAGSSTKMQILEGLGLNLQKSSEKELHRGFQQLLQELNQPRDGFQLSLGNALFTDLVVDLQDTFVSAMKTLYLADTFPTNFRDSAGAMKQINDYVAKQTKGKIVDLLKNLDSNAVVIMVNYIFFKAKWETSFNHKGTQEQDFYVTSETVVRVPMMSREDQYHYLLDRNLSCRVVGVPYQGNATALFILPSEGKMQQVENGLSEKTLRKWLKMFKKRQLELYLPKFSIEGSYQLEKVLPSLGISNVFTSHADLSGISNHSNIQVSEMVHKAVVEVDESGTRAAAATGTIFTFRSARLNSQRLVFNRPFLMFIVDNNILFLGKVNRP
binds: all assays above
